The series is described as follows: general procedure: Fmoc solid-phase peptide synthesis; β-CLEAR resin; HCTU. The conditions noted are these: for conjugation yield: conjugation step.

“4-(8-methoxy-8-oxooctanamido)benzoyl-H2NββPyPyβPyPyPyγImImImβPyImβDp” came in with a conjugation yield of 33%.
Still for that read-out and setting: to “4-(8-methoxy-8-oxooctanamido)benzoyl-(PEG) ββImPyPyβImPyγImPyβImIm PyβDp” belongs 12%; to “4-(8-methoxy-8-oxooctanamido)benzoyl-ββImPyPyγImImPyβDp”, 19%.
Still for that read-out and setting: next, “4-(8-methoxy-8-oxooctanamido)benzoyl-ββImPyPyβImPyγImPyβImIm PyβDp”: 38%.
With “4-(8-(benzyloxyamino)-8-oxooctanamido)phenylamido-ββPyPyImγImImPyβDp”, the step yield (late stage modification step) came out at 56%.

Values taken from patent publication US20110160399A1 (NIHON UNIVERSITY, priority 2008, published 2011).
